Reference: PubChem BioAssay AID1487 (National Center for Advancing Translational Sciences (NCATS), 2009)
Several values for one entry are separate records, joined by “and”; a condition that tells them apart may be missing. Equal values may be shown once. This is one part of the list. These are further read-outs of the screen, such as a control signal, another cell line or another target. No call is given for them. Compounds called inactive in the main read-out are mostly missing here. Potencies come from curve fits of mixed quality, noted in brackets.

Test: qHTS Assay for Modulators of Lamin A Splicing
Details: HeLa LMNA splicing GFP/RFP minigene ratio, 48 h
How it was run: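 Read-out is the ratio of GFP to DsRed2 object intensity, acquired by 488 nm laser-scanning cytometry on HeLa lamin A-EGFP minigene reporter cells. Compound incubation 48 hrs at 37 °C in Opti-MEM with 2% FBS; DMSO 0.5% final.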

[1] = measured here: GFP splicing reporter channel
[2] = measured here: RFP viability control channel

| Compound | AC50 [1] | AC50 [2] |
| --- | --- | --- |
| O=C(CC[N+](=O)[O-])OCC1OC(O)C(OC(=O)CC[N+](=O)[O-])[C@@H](OC(=O)CC[N+](=O)[O-])C1OC(=O)CC[N+](=O)[O-] (stereo partly specified) | 11.2 µM [rising, partial curve] |  |
| COc1ccccc1-n1c(/C=C/c2ccccc2)nc2ccccc2c1=O | 22.4 µM [falling, partial curve, poor fit] |  |
| CC1CCCN(C(=O)CCl)C1 (stereo unspecified) |  | 0.316 µM [rising, partial curve, poor fit] |
| CN(C)C(=O)Oc1ccnc2cc(Cl)ccc12 |  | 35.5 µM [rising, single point] |
| CC[n+]1c(/C=C/N(C)c2ccccc2)sc2ccc(Cl)cc21 | 3.98 µM [rising, single point] |  |
| COc1ccc(C)cc1NC(=O)CN1CCN(CC(=O)Nc2ccccc2F)CC1 |  | 20 µM [rising, single point] |
| CCN(CC)c1ccc(C=C2C(=O)NC(=S)NC2=O)cc1 | 20 µM [falling, single point] | 31.6 µM [falling, partial curve] |
| CCc1ccc(OCC(=O)N2CCN(CCc3ccccn3)CC2)cc1 | 0.794 µM [falling, single point] |  |
| NC(CP(=O)(O)O)C(=O)O (stereo unspecified) | 39.8 µM [falling, partial curve, poor fit] | 0.00631 µM [falling, full curve, poor fit] |
| CN1CCc2cc(O)cc3c2C1Cc1ccc(O)c(O)c1-3 (stereo unspecified) | 17.8 µM [falling, partial curve] | 11.2 µM [falling, partial curve] |
| CN1CCN(C(=O)O[C@H]2c3nccnc3C(=O)N2c2ccc(Cl)cn2)CC1 | 35.5 µM [falling, single point] |  |
| Cc1cccc(-n2c(-c3cccs3)nc3ccccc3c2=O)c1 |  | 35.5 µM [rising, single point] |
| CC(=O)N1CCN(c2ccc([N+](=O)[O-])cc2C=C2C(=O)NC(=O)NC2=O)CC1 |  | 14.1 µM [rising, single point] |
| COc1cc2c(cc1O)CC[n+]1cc3c(OC)c(OC)ccc3cc1-2 |  | 11.2 µM [rising, partial curve, poor fit] |
| O=C1Nc2ccc(Cl)cc2C(c2ccccc2Cl)=NC1O (stereo unspecified) | 12.6 µM [rising, partial curve, poor fit] | 28.2 µM [rising, single point] |
| CCC(=Nc1ccc2c(c1)CCC2)c1c(O)n(C)c(=O)n(C)c1=O |  | 3.98 µM [rising, partial curve] |
| CCC(=O)c1ccc(OC(=O)N(C)c2ccccc2)cc1 | 0.0224 µM [rising, full curve, poor fit] |  |
| CCC(=NCc1cc(OC)cc(OC)c1)c1c(O)n(C)c(=O)n(C)c1=O |  | 2.51 µM [rising, full curve, poor fit] |
| COc1ccc2c(c1O)-c1c(OC)c(OC)cc3c1[C@H](C2)N(C)CC3 | 0.251 µM [falling, full curve, poor fit] |  |
| NCC(CC(=O)O)c1ccc(Cl)cc1 (stereo unspecified) | 0.501 µM [rising, full curve, poor fit] | 6.31 µM [falling, partial curve, poor fit] |
| O=C1OC(c2ccc(O)c(S(=O)(=O)O)c2)(c2ccc(O)c(S(=O)(=O)O)c2)c2c(Br)c(Br)c(Br)c(Br)c21 | 10 µM [falling, partial curve, poor fit] |  |
| CN(c1ccccc1)S(=O)(=O)c1cccc(C(=O)N2CCN(c3ccccn3)CC2)c1 | 14.1 µM [rising, single point] | 22.4 µM [rising, single point] |
| Clc1ccc2c(c1)CCc1cccnc1C2=C1CCNCC1 | 7.08 µM [falling, partial curve] and 11.2 µM [falling, single point] | 3.16 µM [falling, full curve] and 11.2 µM [falling, partial curve, poor fit] |
| CC(C)[C@]12O[C@H]1[C@@H]1O[C@]13[C@]1(O[C@H]1C[C@H]1C4=C(CC[C@@]13C)C(=O)OC4)[C@@H]2O | 0.00631 µM [falling, full curve, poor fit] | 0.0891 µM [falling, full curve] |
| O=c1cccc2n1CC1CNC[C@H]2C1 | 1 µM [falling, partial curve, poor fit] | 0.0631 µM [falling, single point] |
| Cc1cc(N2C(=O)C3CCCN3C2c2sccc2C)no1 (stereo unspecified) | 2.51 µM [falling, full curve, poor fit] | 2.24 µM [falling, full curve, poor fit] |
| CCOc1ccc(Br)c(C2(O)CC(C)N(C)CC2C)c1 (stereo unspecified) | 35.5 µM [rising, single point] |  |

Fetched one by one from above, four records:

| Compound | AC50 [1] | AC50 [2] |
| --- | --- | --- |
| O=C1Nc2ccc(Cl)cc2C(c2ccccc2Cl)=NC1O (stereo unspecified) | 12.6 µM [rising, partial curve, poor fit] | 28.2 µM [rising, single point] |
| Clc1ccc2c(c1)CCc1cccnc1C2=C1CCNCC1 | 7.08 µM [falling, partial curve] and 11.2 µM [falling, single point] | 3.16 µM [falling, full curve] and 11.2 µM [falling, partial curve, poor fit] |
| O=C1OC(c2ccc(O)c(S(=O)(=O)O)c2)(c2ccc(O)c(S(=O)(=O)O)c2)c2c(Br)c(Br)c(Br)c(Br)c21 | 10 µM [falling, partial curve, poor fit] |  |
| CC(=O)N1CCN(c2ccc([N+](=O)[O-])cc2C=C2C(=O)NC(=O)NC2=O)CC1 |  | 14.1 µM [rising, single point] |

Carrying on.

| Compound | AC50 [1] | AC50 [2] |
| --- | --- | --- |
| O=C(Nc1ccc2c(c1)OCO2)c1cccn(Cc2ccc(F)cc2)c1=O | 0.178 µM [falling, full curve, poor fit] | 0.001 µM [falling, full curve, poor fit] |
| CCC(CC)C1C(C#N)=C(N)Oc2c1c(=O)oc1ccccc21 (stereo unspecified) |  | 11.2 µM [rising, partial curve, poor fit] |
| Cc1cccc(NC(=O)c2cccc(NS(=O)(=O)c3ccc(Cl)cc3)c2)c1 |  | 17.8 µM [rising, single point] |
| C[Se]C[C@H](N)C(=O)O | 10 µM [falling, partial curve, poor fit] | 5.01 µM [rising, partial curve] |
| CC(N)Cc1ccc(O)cc1 (stereo unspecified) | 35.5 µM [falling, single point] |  |
| CN1C(=O)CN=C(c2ccc(Cl)cc2)c2cc(Cl)ccc21 | 8.91 µM [rising, partial curve, poor fit] | 7.94 µM [rising, partial curve, poor fit] |
| O=c1[nH]c(O)c(C=NC2CCN(Cc3ccccc3)CC2)c(=O)[nH]1 | 15.8 µM [rising, partial curve, poor fit] | 22.4 µM [rising, single point] |
| NCC1(c2ccc3c(c2)OCCO3)CCCC1 | 39.8 µM [falling, partial curve, poor fit] | 10 µM [falling, partial curve, poor fit] |
| CC(C)N1C(=O)CCC1C(=O)N1CCC2(CC1)OCCO2 (stereo unspecified) | 0.398 µM [falling, single point] |  |
| CC(=O)[C@@]1(O)CC[C@H]2[C@@H]3CCC4=CC(=O)CC[C@]4(C)[C@H]3CC[C@@]21C |  | 25.1 µM [rising, single point] |
| Cc1sc2c(c1C)C(c1ccc(C(C)(C)C)cc1)=NCC(=O)N2CC(=O)Nc1nccs1 | 20 µM [falling, partial curve] | 22.4 µM [falling, partial curve] |
| O=C(Oc1ccc2ccccc2c1Cl)N1CCCC1 |  | 7.08 µM [rising, partial curve] |
| CC1(C)OC(c2ccccc2)=C/C(=C/C=C2C(=O)NC(=O)NC2=O)O1 | 3.98 µM [rising, single point] |  |
| N#CC(C#N)=Cc1ccc(-c2ccccc2)o1 |  | 17.8 µM [rising, partial curve] |
| CCOc1ccc(CC2(CCc3ccncc3)C(=O)NC(=O)NC2=O)cc1 |  | 0.794 µM [falling, full curve, poor fit] |
| CC(NC(C)(C)C)C(=O)c1cccc(Cl)c1 (stereo unspecified) | 3.16 µM [rising, partial curve, poor fit] |  |
| O=C(C(=O)N1CC=C(c2ccccc2)CC1)c1c[nH]c2ccccc12 |  | 0.224 µM [rising, full curve, poor fit] |
| O=C(COc1ccccc1Cl)Nc1ccc2nc(SCC(=O)N3CCCC3)sc2c1 |  | 35.5 µM [falling, single point] |
| COc1c(C)cc(C(=O)C2CCCN(Cc3cccc(C)n3)C2)cc1C (stereo unspecified) | 1.58 µM [falling, full curve, poor fit] | 1.12 µM [falling, full curve] |
| Cc1nccn1Cc1ccc(Cl)nc1 | 0.126 µM [falling, partial curve, poor fit] | 0.112 µM [falling, partial curve, poor fit] |
| O=C(O)C(Cl)Cl | 35.5 µM [falling, single point] | 0.0708 µM [falling, partial curve, poor fit] |
| CCc1ccc(OCCCN=C(C)c2c(O)n(C)c(=O)n(C)c2=O)cc1 |  | 12.6 µM [rising, partial curve] |
| O=C(Oc1nsnc1N1CCOCC1)N(c1ccccc1)c1ccccc1 | 11.2 µM [rising, partial curve] | 11.2 µM [rising, single point] |
| CC(C)(C)c1cc(C=C(C#N)C#N)cc(C(C)(C)C)c1O | 1.12 µM [falling, full curve] | 1.12 µM [falling, full curve] |
| CCn1nc(-c2ccccc2)nc2c(=O)n(C)c(=O)nc1-2 | 5.01 µM [falling, full curve, poor fit] |  |
| Cc1ccc(NP(=O)(Oc2ccccc2F)Oc2ccccc2F)cc1C | 15.8 µM [falling, single point] | 22.4 µM [falling, single point] |
| COc1ccc(C2NCc3ccc4c(c3-n3cccc32)OCO4)cc1O (stereo unspecified) |  | 2.24 µM [rising, partial curve] |
